# The list shows a part of the results.
# Test system: T1, CTL2-GFP (C. trachomatis L2/434/Bu, GFP-expressing)
# T1 construct: L2/434/Bu, GFP-expressing
# Parameters: species or system HeLa; Intracellular C. trachomatis growth in HeLa cells, bulk GFP fluorescence relative to DMSO
# Conditions: bulk GFP, single well; 28.5 h, 10 µM; inhibitor
row,Structure (SMILES),% of control remaining [%]
1,Cc1cccnc1NC(=O)c1cccc(C(=O)Nc2ncccc2C)c1 [CBK262184],112.038
2,Cc1cc(CSc2ccccc2)ccc1NC(=O)/C=C/c1cccc([N+](=O)[O-])c1 [CBK264687],114.796
3,COc1ccc(-c2c[n+]3ccccc3c(=O)[nH]2)cc1 [CBK011078B],122.801
4,C=CCn1c(Cc2csc(NC(=O)c3cnc(SC)n3-c3ccccc3)n2)n[nH]c1=S [CBK297786],139.485
5,Clc1ccc(COc2cccc(CNCCN3CCOCC3)c2)cc1 [CBK278227C],116.868
6,Cn1cccc1C(=O)N[C@H]1CCN2C(=O)N(c3ccc(OC(F)(F)F)cc3)C(=O)[C@@H]2C1 [CBK289548],114.098
7,CN(Cc1nc2c(s1)CCCC2)C(=O)c1ccc2[nH]cnc2c1 [CBK304138],127.551
8,COc1ncc(-c2cccc(NCC(c3cccnc3)N(C)C)n2)c(OC)n1 (centres unmarked) [CBK037723],157.862
9,CCOc1ccc(-c2ccnc(C)n2)cc1C(=O)O [CBK306505],137.427
10,Nc1cc2ccccc2c(-c2cc(F)cc(F)c2)n1 [CBK085711],101.156
11,Cc1ccc2c(c1)nc(CNC(=O)NC1CCCc3cn[nH]c31)n2C (centres unmarked) [CBK305554],119.754
12,COc1ccc(C(=O)N[C@H]2CO[C@H]3[C@@H]2OC[C@H]3OC(=O)Nc2ccccc2)cc1 [CBK289463],101.252
13,CC1(C)CC(NC(=O)CCc2cc(C(C)(C)C)c(O)c(C(C)(C)C)c2)CC(C)(C)N1 [CBK261986],87.0164
14,O=C(O)c1csc(S(=O)(=O)Nc2ccc(Br)cc2Cl)c1 [CBK297731],151.644
15,CCOC(=O)c1c(-c2ccccc2)csc1NS(=O)(=O)c1ccc(C)cc1 [CBK015841],111.413
16,COc1ccc(C(=O)Nc2cc3ccccc3c(N3CCNCC3)n2)cc1 [CBK036344T],86.8844
17,Cc1ccc(C(=O)Nc2nc3ccc4nc(C)sc4c3s2)cc1 [CBK287305],125.371
18,Cn1cnnc1SCC(C)(C)NS(=O)(=O)c1ccccc1 [CBK268276],110.693
19,O=C(NC(=O)N1CCC2(CC1)NCCc1c2[nH]c2ccc(O)cc12)c1ccccc1 [CBK046936],128.658
20,COc1ccc(CN2CCN(Cc3ccccc3[N+](=O)[O-])CC2)c(OC)c1 [CBK263340],116.868
21,Cc1nn2c3ccccc3nc2n1CCN1CCCCC1 [CBK278256C],94.4189
22,CCc1nnc(NCC2CCCCC2)s1 [CBK075044],103.099
23,Cc1nn(Cc2ccc(C(=O)Nc3c(C)nn(Cc4ccc(Cl)c(Cl)c4)c3C)o2)c(C)c1Br [CBK265855],109.835
24,C[S+]([O-])c1ccc(-c2ccc(CN(C3CC3)C3CCN(c4ncccn4)CC3)cn2)cc1 (centres unmarked) [CBK172877],112.538
25,Nc1nc(OCCOc2ccccc2)cnc1-c1ccsc1 [CBK145163],100
26,Cc1ccc(Nc2ncc(C(=O)NCCCN3CCN(c4cccc(Cl)c4)CC3)c3ccccc23)cc1Cl [CBK291251],30.0022

row,Structure (SMILES),% of control remaining [%]
1,CN1C[C@@H](NC(=O)c2ccc(C#N)cc2)C[C@H]1c1nc(-c2ccc(F)cc2)no1 [CBK288865],104.829
2,O=c1[nH]c2cc(Cl)cc(Cl)c2o1 [CBK015711],116.026
3,O=C(Cc1csc(-c2ccsc2)n1)Nc1nc2c(s1)CCC2 [CBK297935],106.254
4,CCN(Cc1nccn1CC)[C@H]1CCO[C@@H](c2ccccc2-c2ccc(OC)cc2)C1 [CBK285852],95.1836
5,CCc1[nH]nc2c1C(C1C=CCCC1)C(C#N)=C(N)O2 (centres unmarked) [CBK270236],108.033
6,O=C(NCCOc1ccccc1)c1nn(-c2ncccn2)c2ccccc12 [CBK048494],157.735
7,CC(C)(C)OC(=O)CN1C(=O)N[C@@H]2CCCC[C@@H]21 [CBK003423],125.226
8,O=C(O)c1cccc(N2C(=O)C3C4C=CC(CO)(O4)C3C2=O)c1 (centres unmarked) [CBK287066],112.628
9,COC(=O)c1c(NC(=O)CC2Nc3ccccc3NC2=O)sc2c1CCC(C(C)(C)C)C2 (centres unmarked) [CBK265614],89.68
10,Cc1nn(Cc2ccc(F)cc2)c(C)c1NC(=O)c1cnn2c(C(F)(F)F)cc(-c3ccccc3)nc12 [CBK268231],121.781
11,COc1ccc(Oc2nccnc2N2CCN(CC3CCCCC3)CC2)cc1OC [CBK083064T],106.587
12,CCOC(=O)CN1CCC(Oc2nccnc2OCc2ccc(Cl)c(Cl)c2)CC1 [CBK083113T],110.048
13,CCN1CCC[C@@H]1CNc1cc(NS(=O)(=O)c2cccs2)cc2ccoc12 [CBK067904C],93.5287
14,O=C(CSc1nnc(SCc2cccc3ccccc23)s1)Nc1ccc(F)c(Cl)c1 [CBK267574],110.987
15,Brc1ccc(/C=N\c2ccc3c(c2)ncn3CCn2cnc3cc(/N=C/c4ccc(Br)cc4)ccc32)cc1 [CBK262285],139.67
16,CC(=O)c1ccc(-c2nc(NC(=O)c3ccccn3)cnc2-c2cccc(OC(F)(F)F)c2)s1 [CBK036929],141.518
17,OCCCn1c(-c2ccc(Cl)cc2)cn2c3ccccc3nc12 [CBK262900],69.6176
18,O=C(O)C1CCCN(C(=O)NCc2c(Cl)cccc2Cl)C1 (centres unmarked) [CBK161362],144.23
19,COc1ccc([N+](=O)[O-])cc1NC(=O)CSc1nnnn1C [CBK268950],172.587
20,CC(C)c1ccc(C(=O)NC2CCN(CC(F)(F)F)C2=O)nc1 (centres unmarked) [CBK304089],110.606
21,O=C(Nc1ccccc1Cl)N1CCN(c2ccc(F)cc2)CC1 [CBK117849],88.4942
22,O=C(Nc1ccc(Sc2ccc([N+](=O)[O-])cc2)cc1)c1ccc2c(c1)C(=O)N(c1ccccc1-c1ccccc1)C2=O [CBK261340],120.017
23,c1ccc(N2CCN(c3nc4cc5c(cc4s3)OCO5)CC2)cc1 [CBK287495],121.017
24,NC(=O)C[N+]1(CC#CC(O)(c2ccccc2)c2ccccc2)CCCC1 [CBK262703I],126.864
25,CC(=O)Nc1cccc(C(=O)N2CCN(CC3CCCO3)CC2)c1 (centres unmarked) [CBK305158],200.112
26,O=C(CCSc1ccc([N+](=O)[O-])cc1Cl)Nc1ccc(Br)c2cccnc12 [CBK266407],99.211

# Of the compounds above, these have a CF3 group.
row,Structure (SMILES),% of control remaining [%]
6,Cn1cccc1C(=O)N[C@H]1CCN2C(=O)N(c3ccc(OC(F)(F)F)cc3)C(=O)[C@@H]2C1 [CBK289548],114.098
10,Cc1nn(Cc2ccc(F)cc2)c(C)c1NC(=O)c1cnn2c(C(F)(F)F)cc(-c3ccccc3)nc12 [CBK268231],121.781
16,CC(=O)c1ccc(-c2nc(NC(=O)c3ccccn3)cnc2-c2cccc(OC(F)(F)F)c2)s1 [CBK036929],141.518
20,CC(C)c1ccc(C(=O)NC2CCN(CC(F)(F)F)C2=O)nc1 (centres unmarked) [CBK304089],110.606

# Remaining list, next part

row,Structure (SMILES),% of control remaining [%]
1,COc1ccc2[nH]c3c(c2c1)CN(C(=O)CCC1CCCO1)CC3 (centres unmarked) [CBK281530],111.493
2,Cc1cc(C)c2c(C)nn(-c3ccc(C(=O)O)cc3)c2n1 [CBK267480],128.724
3,S=C(NCc1ccc(-n2cccn2)cc1)NCC1CCCO1 (centres unmarked) [CBK267083],164.484
4,Cc1cc(O)nc(SCCCSc2ccccc2)n1 [CBK267415],106.822
5,COc1ccc2[nH]cc(C3CCN(Cc4cc(C)no4)CC3)c2c1 [CBK303996],94.0002
6,O=S(=O)(Nc1ccc(C(O)(C(F)(F)F)C(F)(F)F)cc1)c1cccc2cccnc12 [CBK062092],97.8112
7,CC(C)N1CCC(C(=O)NC(=O)NCCc2ccc3c(c2)OCO3)CC1 [CBK034804],119.082
8,Cn1cccc1CNCCc1ccc(S(N)(=O)=O)cc1 [CBK267831C],117.842
9,COc1ccc(C)cc1S(=O)(=O)N1CCc2c(CN3CCN(C)CC3)cccc21 [CBK113628T],106.123
10,Cn1ccnc1Sc1nc2ccccc2nc1N1CCCC1 [CBK093791],108.58
11,Cc1ccc(NC(=O)c2cscn2)c(C)n1 [CBK200297],173.606
12,CCc1nn(CC(=O)NC2CCC2)c(=O)c2cc3ccsc3n12 [CBK284136],85.7492
13,Cc1nc(NCc2ccc(C(F)(F)F)cc2)nc(N2CCOCC2)n1 [CBK023863],100.078
14,Cc1ccc(Cl)cc1-n1cc(-c2ccc(F)cc2)nn1 [CBK113128],128.474
15,Cc1cc(NC(=O)c2cc(Br)cnc2NCc2cccnc2)n(C)n1 [CBK076358],119.413
16,O=C(NCC1CCNCC1)c1ccncc1 [CBK267637C],115.438
17,CCc1cccc2c(CC(=O)N(C)CCN(C)C)c(C)[nH]c12 [CBK282673],85.7081
18,O=C(Cn1c(-c2cncs2)nc2ccccc21)NCc1ccc2c(c1)OCO2 [CBK264699],116.564
19,CO/N=C(N)/C(N)=N/OC [CBK019780],122.929
20,O=C(c1ccc(C#CC2(O)CCCCC2)cc1)N1CCC(C(O)(c2ccccc2)c2ccccc2)CC1 [CBK033758],58.5998
21,Cc1csc(C(Cc2ccsc2)NC(=O)CN2CCCC2=O)n1 (centres unmarked) [CBK285046],146.025
22,COc1ccc(C2NC(C(=O)O)CS2)cc1CN1CCOCC1 (centres unmarked) [CBK287132],119.956
23,Cc1ccc(C2=NN(c3ccccc3)C(c3cn(CCC(=O)O)nc3-c3ccccc3)C2)cc1 (centres unmarked) [CBK296110],97.1958
24,COc1ccc([C@@]23CC[C@@H](NC(=S)NC(C)=O)C[C@@H]2N(Cc2ccccc2)CC3)cc1OC [CBK025503T],66.3877
25,Cc1ccc(S(=O)(=O)n2ccc3ccc(N4CCN(C)CC4)nc32)cc1 [CBK063327],98.9987
